Source: the supplement of paper PMC8846439
The other results are listed elsewhere or left out. Repeats are few or missing, and single values can be far off.

The compounds below were run on Trypanosoma brucei brucei bloodstream form L262P (kDNA-independent) (assay: viability Z-score (nuclei count per well, median-polish normalised, relative to plate distribution); higher = more viable parasites (negative = growth inhibition)). Conditions: 4 days; compound concentration: 10 µM (some Prestwick/PKE rows may be 1 µM / not distinguished).
With `Nc1ncnc2c1c(I)cn2[C@H]1O[C@@H](CO)[C@H](O)[C@@H]1O` [5-Iodotubericidin] the “viability Z-score” value was -5.98. With `O=C(C[C@@]([H])(N/C2=C/C=1C=CC=CC=1C=C2)C3=CC=NC=C3)C4=C/C=C(/[Br])C=C4` the “viability Z-score” value was -2.8. For `O=C(NC12CC3([H])CC([H])(C1)C[C@@]([H])(C2)C3)C=4C=CC=CC=4NC(=O)C/C5=C/C=CC=C5`, the “viability Z-score” value was -5.8. For `O=[N+]([O-])C=C1CCCN1c1cc(O)c(N2CCC/C2=C\[N+](=O)[O-])cc1O`, the “viability Z-score” value was -3.43. `O=C(Nc1ccc(S(=O)(=O)N2CCCCC2)cc1)c1cccc(Cl)c1` was tested, and the “viability Z-score” value was -3.28. `O=C(NCCSC1CCCCC1)c1ccco1` was tested, and the “viability Z-score” value was -3.4. With `COc1ccc2ccccc2c1/C=C(/C#N)C(=O)NC1CCCCC1` the “viability Z-score” value was -5.47. With `[F]C([F])([F])C2=C/C(=C(/O/C1=C/C(C)=C([Cl])C(C)=C1)C=C2)N3C=CC=C3` the “viability Z-score” value was -2.33. In the case of `CCC1(c2ccccc2)NC(=O)N(C)C1=O` (stereo not given) [Mephenytoin], the “viability Z-score” value is reported as -1.62. For `CCOC(=O)c1[nH]c(C)c(C(=O)N2CCN(CC)CC2)c1C`, the “viability Z-score” value was -3.52. For `O=C(N/C1=C/N(N=C1)CC=2C=CC=CC=2C)C=3C=C(N=C4C=3C=C/C=C4/C)C5=CC=NC=C5`, the “viability Z-score” value was -2.39. In the case of `O=C(CCCOc1ccc(Cl)cc1Cl)N1CCCCC1`, the “viability Z-score” value is reported as -3.26. With `N#CCC(=O)NNC(=O)C2=CC=1C=C/C=C(/CC=C)C=1OC2=O` the “viability Z-score” value was -3.89. In the case of `CCn1ncc(C(CC(=O)c2ccccc2)CC(=O)c2ccccc2)c1C`, the “viability Z-score” value is reported as -1.56. For `O=C(N[C@@]([H])(C2=N/N=C(/[S]CC(=O)NCC/C1=C/C=CC=C1)N2C)C(C)(C)[H])C3=CC(C)=CC=C3`, the “viability Z-score” value was -2.3. With `[Cl]C=2C=CC(CN/C1=N/OC(C)=C1)=CC=2` the “viability Z-score” value was -3.62. `O=C(C/C1=N/C(=NO1)C=2C=CC(=CC=2)OC)N(C)C=3C=CC=CC=3CC` was tested, and the “viability Z-score” value was -3.43. For `O=C(NCCCCCC(=O)O)C=1/C=C(/OC)C(=CC=1)OC`, the “viability Z-score” value was -2.65. With `CS(=O)(=O)O.Cn1cc(C2=C(c3cn(CCCSC(=N)N)c4ccccc34)C(=O)NC2=O)c2ccccc21` [Ro 31-8220 mesylate] the “viability Z-score” value was -3.6. `N/C1=N/C(=CC([F])=N1)NCC=2C=CC=CC=2` was tested, and the “viability Z-score” value was -3.34. `CC1(C)S[C@@H]2[C@H](NC(=O)Cc3ccccc3)C(=O)N2[C@H]1C(=O)[O-]` [Benzylpenicillin sodium] was tested, and the “viability Z-score” value was -1.84. For `O=[N+]([O-])C=4/C=C(/NC=1N=C(N=C2C=CC=CC=12)C3=CC=CC=C3)C=CC=4`, the “viability Z-score” value was -5.7. `N#Cc1ccc(C(c2ccc(C#N)cc2)n2cncn2)cc1` [Letrozole] was tested, and the “viability Z-score” value was -3.59. In the case of `O=C2C=1N(CCC)C(=NC=1N(C)C(=O)N2C)[S]CC(=O)N3CCC([H])(CC3)C/C4=C/C=CC=C4`, the “viability Z-score” value is reported as -2.37. In the case of `NC(=O)CS/C=c1\nc(N)n2ncnc12`, the “viability Z-score” value is reported as -5.24. For `Cc1[nH]cnc1CN1CCc2c(c3ccccc3n2C)C1=O.Cl` [Alosetron hydrochloride], the “viability Z-score” value was -1.89. For `CN(C)N=Nc1[nH]cnc1C(N)=O` [Dacarbazine], the “viability Z-score” value was -3.46. `CC=1C=CC=CC=1OCC[S]/C3=N/C=2C=CC=CC=2N3` was tested, and the “viability Z-score” value was -4.05. In the case of `CC(C)(C)c1ccc(C(O)CCCN2CCC(C(O)(c3ccccc3)c3ccccc3)CC2)cc1` (stereo not given) [Terfenadine], the “viability Z-score” value is reported as -2.41. `[C@@]/12(c3nc(\C1=C\C=C(/C2C(=O)OC)\C(=O)OC)cc1[nH]c(c(c1C)C=C)cc\1nc(\C(=C1\C)\CCC(=O)O)cc1[nH]c(c3)c(c1CCC(=O)OC)C)C` (stereo not given in full) [Verteporfin] was tested, and the “viability Z-score” value was -2.32. In the case of `CCC(=O)OC(OP(=O)(CCCCc1ccccc1)CC(=O)N1C[C@H](C2CCCCC2)C[C@H]1C(=O)O)C(C)C` (stereo not given in full) [Fosinopril], the “viability Z-score” value is reported as -1.77. For `N#C/C1=C(/NC(C)=C(C(=O)C)[C@]1([H])C2=CC=CC=C2)[S]CC(=O)C3=CC([Br])=CC=C3`, the “viability Z-score” value was -2.41. With `O=C(CCCO)c1ccc2c(c1)OCCO2` the “viability Z-score” value was -2.15. For `N#C/C1=C/C=C(C=C1)N2CCN(CC2)C(=O)C=3OC=CC=3`, the “viability Z-score” value was -1.35. For `O=C2C=C(/N=C(/CC(=O)C=1C=CC([Cl])=CC=1)N2C)CCC`, the “viability Z-score” value was -1.18. In the case of `CSc1sc(C(=O)Nc2cccc(C(F)(F)F)c2)cc1C#N`, the “viability Z-score” value is reported as -2.83. `[O-][N+](=O)C2=C/C=C(/C[S]C=1NC(=NN=1)CC)C=C2` was tested, and the “viability Z-score” value was -6.22. `O=[S](=O)(N1CCCCC1)C4=C/C=C(/NC(=O)C=3C=CC(CN(C=2/C=C(/C)C(C)=CC=2)[S](=O)(=O)C)=CC=3)C=C4` was tested, and the “viability Z-score” value was -2.13. `CCOC(=O)NC(=S)NC(=O)C(C)(C)C` was tested, and the “viability Z-score” value was -6.42. For `COc1ccc([C@@H]2CC(=O)c3c(O)cc(O[C@@H]4O[C@H](CO[C@@H]5O[C@@H](C)[C@H](O)[C@@H](O)[C@H]5O)[C@@H](O)[C@H](O)[C@H]4O)cc3O2)cc1O` [Hesperidin], the “viability Z-score” value was -1.89.
